These are yes or no findings as the source states them, for the method shown. A result given as binding can be weak or reduced; the word gives no strength.

This assay deals with DD(E) soluble fibrin-derived polypeptide. The assay is described as follows: competitive DD(E) binding assay with fluoresceinated peptides.

B1: fluoresceinated peptide corresponding to SEQ ID NO: 22 (peptide)
peptide: QWECPYGLCWIQ
modifications: fluorescein label, site not stated
Take B1: the binding entry is “binds”.
